Results from PMC9218151.
No constants are given. Whether binding was seen depends on the method and setting. Binding seen in cells or lysates may run through a third protein. Some binding calls cover weakened binding; strength is not graded here. One block for each substance: values may come before it.

The chains behind the UniProt entries cited, without tags or fusion partners.
UniProt P38936: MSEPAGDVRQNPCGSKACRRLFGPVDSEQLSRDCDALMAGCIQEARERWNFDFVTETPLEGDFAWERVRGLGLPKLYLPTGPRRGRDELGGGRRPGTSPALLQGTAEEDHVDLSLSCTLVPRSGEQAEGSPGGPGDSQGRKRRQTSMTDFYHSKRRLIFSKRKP
UniProt O95376: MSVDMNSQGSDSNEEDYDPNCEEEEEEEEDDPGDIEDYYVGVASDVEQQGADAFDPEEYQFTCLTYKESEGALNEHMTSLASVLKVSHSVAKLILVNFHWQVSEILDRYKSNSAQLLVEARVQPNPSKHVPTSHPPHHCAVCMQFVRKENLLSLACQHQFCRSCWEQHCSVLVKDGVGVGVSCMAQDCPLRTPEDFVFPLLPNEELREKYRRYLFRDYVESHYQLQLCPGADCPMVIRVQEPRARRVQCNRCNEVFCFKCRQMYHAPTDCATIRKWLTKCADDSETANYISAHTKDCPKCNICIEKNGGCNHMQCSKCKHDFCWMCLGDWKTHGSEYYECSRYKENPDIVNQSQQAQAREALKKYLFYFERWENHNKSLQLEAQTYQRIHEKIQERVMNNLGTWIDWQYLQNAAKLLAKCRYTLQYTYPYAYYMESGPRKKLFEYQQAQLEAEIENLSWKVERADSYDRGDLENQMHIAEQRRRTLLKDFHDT

How the values were obtained:
[1] = target: MYC-tagged p21 (CDKN1A, p21WAF1/CIP1) (human) (UniProt P38936); assay: co-IP; Flag-ARIH2 and MYC-p21 cotransfected into 293FT cells; lysates in IP lysis buffer immunoprecipitated with anti-Flag or anti-MYC antibody overnight at 4 °C, protein A + G agarose beads, blotted with anti-MYC or anti-Flag
[2] = target: endogenous ARIH2 (human (endogenous in SGC7901)) (UniProt O95376); assay: co-IP; endogenous proteins; SGC7901 cell lysates immunoprecipitated with control IgG or ARIH2 antibody, blotted with p21 antibody
[3] = target: Flag-tagged ARIH2 (Ariadne homolog 2) (human) (UniProt O95376); assay: co-IP; Flag-ARIH2 and MYC-p21 cotransfected into 293FT cells; lysates in IP lysis buffer immunoprecipitated with anti-Flag or anti-MYC antibody overnight at 4 °C, protein A + G agarose beads, blotted with anti-MYC or anti-Flag
[4] = target: endogenous p21 (human (endogenous in SGC7901)) (UniProt P38936); assay: co-IP; endogenous proteins; SGC7901 cell lysates immunoprecipitated with control IgG or ARIH2 antibody, blotted with p21 antibody

binding [1]: binds
Substance: Flag-tagged ARIH2 (Ariadne homolog 2) (from UniProt O95376 1-493) (enzyme)

binding [2]: binds
Substance: endogenous p21 (from UniProt P38936 1-164)

binding [3]: binds
Substance: MYC-tagged p21 (CDKN1A, p21WAF1/CIP1) (from UniProt P38936 1-164)

binding [4]: binds
Substance: endogenous ARIH2 (from UniProt O95376 1-493) (enzyme)
